Values quoted from earlier work, collected in publication PMC8037910, “Effect of Chronic Administration of 5-(3-chlorophenyl)-4-Hexyl-2,4 -Dihydro-3H-1,2,4-Triazole-3-Thione (TP-315)—A New Anticonvulsant Drug Candidate—On Living Organisms” (International Journal of Molecular Sciences, 2021).
Where two headings read alike, the source gives them in different places.

Columns and labels:
[1] = system: maximal electroshock-induced seizure (MES); design: method as in PMID 23291122, PMID 25226229, PMID 25090118; settings: mice, cited from earlier work
[2] = system: 6 Hz psychomotor seizure model; design: method as in PMID 32253957; settings: mice, cited from earlier work

Compound	MES Test PI (TD50/ED50) ([1]; pretreatment time 15 min)	MES Test PI (TD50/ED50) ([1]; pretreatment time 30 min)	MES Test PI (TD50/ED50) ([1]; pretreatment time 60 min)	MES Test PI (TD50/ED50) ([1]; pretreatment time 120 min)	6 Hz Test PI (TD50/ED50) ([2]; pretreatment time 15 min)	6 Hz Test PI (TD50/ED50) ([2]; pretreatment time 30 min)	6 Hz Test PI (TD50/ED50) ([2]; pretreatment time 60 min)	6 Hz Test PI (TD50/ED50) ([2]; pretreatment time 120 min)
CC(C)Cn1c(Cc2cccc(Cl)c2)n[nH]c1=S [TPR-22, 5-(3-Chlorobenzyl)-4-isobutyl-2,4-dihydro-3H-1,2,4-triazole-3-thione]	2.3	2.4	2.0	1.7	–	–	–	–
Cc1ccc(-n2c(-c3cccc(Cl)c3)n[nH]c2=S)cc1 [TP-10, 5-(3-Chlorophenyl)-4-(4-methylphenyl)-2,4-dihydro-3H-1,2,4-triazole-3-thione]	5.9	4.5	1.8	1.4	5.4	5.5	2.0	2.4
CCCCCCn1c(-c2cccc(Cl)c2)n[nH]c1=S [TP-315, 5-(3-Chlorophenyl)-4-hexyl-2,4-dihydro-3H-1,2,4-triazole-3-thione]	9.7	6.8	4.7	2.8	7.6	7.8	6.7	3.3
CCCCCCn1c(Cc2cccc(Cl)c2)n[nH]c1=S [TP-427, 5-(3-Chlorobenzyl)-4-hexyl-2,4-dihydro-3H-1,2,4-triazole-3-thione]	>13	>13	6.5	5.6	>24.4	>21.5	10.5	8.5
